Laboratory results: patent publication US8993542B2, “Methods of treating viral infections” (priority 2008, dated 2015)
For at least one compound, name, drawing or mass did not settle the structure.

What was measured:
HIV-1IIIB [1] = test: Association of compound with concentrated virus (LC/MS/MS of viral pellets); type: binding
Protocol: To examine the potential of CMX157 to associate directly with virus, concentrated HIV-1IIIB (approximately 9.7×10^10 virus particles) is treated with 500 nM CMX157 or TFV for 2 hours. Following incubation, virus is pelleted to remove unbound compound, lysed with 70% ice cold methanol and centrifuged. Supernatants are analyzed in triplicate using LC/MS/MS (liquid chromatography/mass spectrometry). TFV, TFV mono- and diphosphate are separated by gradient, reverse phase, ion-paring chromatography and detected by positive ion electrospray. The levels of CMX157 associated with the viral pellets (≈37,000 molecules/virion) are much higher than the levels of TFV associated with viral pellets (≈100 molecules/virion).

HIV = type: cell-based; details: NRTI resistant HIV
HIV-1IIIB [2] = test: Resistance selection by serial passage in CEM-SS cells; type: cell-based
Protocol: In vitro studies designed to select CMX157 resistant mutants use wild-type HIV-1 as the primary inoculum and TFV as a positive control. These studies are conducted by serial passage of HIV-1IIIB and HIV-1RF in CEM-SS cells using increasing concentrations of TFV or CMX157. Drug levels are increased following detection of viral growth at each passage using procedures known to one skilled in the art. Upon completion of each passage, the reverse transcriptase coding region of the viral genome is sequenced to identify any possible resistance-associated mutations that may have emerged within the virus pool.

HIV-1IIIB [3] = test: TCID50 determination of drug-treated HIV-1IIIB; type: cell-based; details: 500 nM, 1 minute incubation prior to centrifugation
HIV-1IIIB [4] = test: Two-drug combination antiviral assay in CEM cells (CPE), MacSynergy II; type: cell-based; details: two-drug combination (with CMX157; control d4T/RBV), CEM-SS cells
[5] = Passage 1, CMX157 300 nM (2× IC50)
[6] = Passage 2, CMX157 600 nM (4× IC50)
[7] = Passage 3, CMX157 900 nM (6× IC50)
[8] = Passage 4, CMX157 1,200 nM (8× IC50)
[9] = Passage 5, CMX157 1,800 nM (12× IC50)
[10] = Passage 6, CMX157 2,400 nM (16× IC50)
[11] = Passage 7, CMX157 2,800 nM (19× IC50)
[12] = Passage 8, CMX157 2,800 nM (19× IC50)
[13] = Passage 9, CMX157 5,600 nM (36× IC50)

CCCCCCCCCCCCCCCCOCCCOP(=O)(O)CO[C@H](C)Cn1cnc2c(N)ncnc21 [CMX157, Hexadecyloxypropyl-9-R-[2-(Phosphonomethoxy)Propyl]-Adenine]
difference in level directly associated with purified HIV versus TFV (HIV-1IIIB [1]): ~300 fold
levels associated with the viral pellets (HIV-1IIIB [1]; 500 nM, 2 hours): ≈ 37,000 molecules/virion
median fold more potent than tenofovir (HIV): 359 fold
range of fold more potent than tenofovir (HIV): 295-472 x
Day of Peak Virus Production (HIV-1IIIB [2]; [5]): Day 6
Peak RT activity (HIV-1IIIB [2]; [5]): (23,615 cpm)
Day of Peak Virus Production (HIV-1IIIB [2]; [6]): Day 6
Peak RT activity (HIV-1IIIB [2]; [6]): (6,706 cpm)
Day of Peak Virus Production (HIV-1IIIB [2]; [7]): Day 14
Peak RT activity (HIV-1IIIB [2]; [7]): (11,364 cpm)
Day of Peak Virus Production (HIV-1IIIB [2]; [8]): Day 6
Peak RT activity (HIV-1IIIB [2]; [8]): (34,440 cpm)
Day of Peak Virus Production (HIV-1IIIB [2]; [9]): Day 6
Peak RT activity (HIV-1IIIB [2]; [9]): (14,061 cpm)
Day of Peak Virus Production (HIV-1IIIB [2]; [10]): Day 7
Peak RT activity (HIV-1IIIB [2]; [10]): (9,933 cpm)
Day of Peak Virus Production (HIV-1IIIB [2]; [11]): Day 5
Peak RT activity (HIV-1IIIB [2]; [11]): (1,900 cpm)
Day of Peak Virus Production (HIV-1IIIB [2]; [12]): Day 9
Peak RT activity (HIV-1IIIB [2]; [12]): (18,638 cpm)
Day of Peak Virus Production (HIV-1IIIB [2]; [13]): Day 11
Peak RT activity (HIV-1IIIB [2]; [13]): (1,585 cpm)
effect on infectivity (HIV-1IIIB [3]): decreases infectivity

CCC[C@@]1(CCc2ccccc2)CC(O)=C([C@H](CC)c2cccc(NS(=O)(=O)c3ccc(C(F)(F)F)cn3)c2)C(=O)O1 [Tipranavir (TPV), tipranavir]
Interpretation of Antiviral Results (MacSynergy) (HIV-1IIIB [4]): slightly synergistic
